Reference: the supplement of paper PMC10849652
This is one part of the list.

Sequences of proteins named here, by UniProt entry; tags and fusion partners are left off. A change or cut given only in a name is not applied to a line headed by its entry.
UniProt P35443: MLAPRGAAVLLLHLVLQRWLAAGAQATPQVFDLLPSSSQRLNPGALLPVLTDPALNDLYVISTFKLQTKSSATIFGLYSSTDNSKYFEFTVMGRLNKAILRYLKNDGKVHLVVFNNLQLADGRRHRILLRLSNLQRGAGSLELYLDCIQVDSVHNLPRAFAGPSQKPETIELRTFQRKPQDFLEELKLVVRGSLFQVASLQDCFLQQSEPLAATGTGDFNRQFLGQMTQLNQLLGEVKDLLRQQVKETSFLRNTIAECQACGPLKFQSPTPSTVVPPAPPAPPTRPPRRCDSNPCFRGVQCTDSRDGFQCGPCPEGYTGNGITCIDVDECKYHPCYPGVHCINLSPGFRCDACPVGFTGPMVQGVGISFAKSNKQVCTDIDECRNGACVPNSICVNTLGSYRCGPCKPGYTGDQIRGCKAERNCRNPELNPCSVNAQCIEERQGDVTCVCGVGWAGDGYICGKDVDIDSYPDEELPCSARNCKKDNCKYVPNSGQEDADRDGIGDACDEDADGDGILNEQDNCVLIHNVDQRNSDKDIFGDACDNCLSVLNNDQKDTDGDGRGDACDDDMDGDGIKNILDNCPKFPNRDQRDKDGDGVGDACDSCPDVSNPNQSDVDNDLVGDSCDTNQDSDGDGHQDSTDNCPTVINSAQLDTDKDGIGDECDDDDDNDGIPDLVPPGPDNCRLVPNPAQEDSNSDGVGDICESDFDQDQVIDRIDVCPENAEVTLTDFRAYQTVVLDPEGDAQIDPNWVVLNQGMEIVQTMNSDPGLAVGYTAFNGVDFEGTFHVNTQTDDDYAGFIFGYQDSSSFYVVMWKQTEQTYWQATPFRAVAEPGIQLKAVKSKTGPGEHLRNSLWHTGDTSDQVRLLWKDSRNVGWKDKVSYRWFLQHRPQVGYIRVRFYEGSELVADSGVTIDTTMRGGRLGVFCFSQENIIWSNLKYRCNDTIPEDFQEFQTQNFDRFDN
UniProt Q03167: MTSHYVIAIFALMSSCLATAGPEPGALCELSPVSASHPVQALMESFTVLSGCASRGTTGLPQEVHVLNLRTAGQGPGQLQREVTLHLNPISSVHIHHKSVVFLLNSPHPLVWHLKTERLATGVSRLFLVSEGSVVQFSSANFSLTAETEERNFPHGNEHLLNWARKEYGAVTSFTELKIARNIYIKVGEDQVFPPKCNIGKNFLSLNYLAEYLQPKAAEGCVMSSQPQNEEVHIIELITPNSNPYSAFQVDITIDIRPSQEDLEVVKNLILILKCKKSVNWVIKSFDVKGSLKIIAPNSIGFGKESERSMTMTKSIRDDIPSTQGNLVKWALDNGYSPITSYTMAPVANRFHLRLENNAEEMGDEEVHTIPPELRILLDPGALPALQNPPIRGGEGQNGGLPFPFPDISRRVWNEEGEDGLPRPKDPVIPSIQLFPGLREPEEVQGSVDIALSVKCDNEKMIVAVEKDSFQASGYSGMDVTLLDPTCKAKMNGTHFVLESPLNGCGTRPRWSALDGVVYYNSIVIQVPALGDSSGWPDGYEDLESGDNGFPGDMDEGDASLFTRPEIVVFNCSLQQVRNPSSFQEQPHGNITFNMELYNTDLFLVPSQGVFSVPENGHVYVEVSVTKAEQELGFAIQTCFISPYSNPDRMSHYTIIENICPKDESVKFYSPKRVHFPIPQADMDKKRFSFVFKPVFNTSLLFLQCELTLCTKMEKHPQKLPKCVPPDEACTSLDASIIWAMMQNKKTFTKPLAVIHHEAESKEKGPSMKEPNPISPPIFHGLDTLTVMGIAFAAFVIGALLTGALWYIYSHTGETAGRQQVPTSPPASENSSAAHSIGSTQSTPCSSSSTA
UniProt Q5T1C6: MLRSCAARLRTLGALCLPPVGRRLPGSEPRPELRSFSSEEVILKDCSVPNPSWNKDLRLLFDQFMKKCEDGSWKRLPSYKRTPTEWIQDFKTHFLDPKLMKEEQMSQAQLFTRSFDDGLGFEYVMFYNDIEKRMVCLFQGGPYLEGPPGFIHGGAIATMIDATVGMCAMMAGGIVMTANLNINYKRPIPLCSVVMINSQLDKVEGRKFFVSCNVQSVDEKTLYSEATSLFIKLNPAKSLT
UniProt O14925: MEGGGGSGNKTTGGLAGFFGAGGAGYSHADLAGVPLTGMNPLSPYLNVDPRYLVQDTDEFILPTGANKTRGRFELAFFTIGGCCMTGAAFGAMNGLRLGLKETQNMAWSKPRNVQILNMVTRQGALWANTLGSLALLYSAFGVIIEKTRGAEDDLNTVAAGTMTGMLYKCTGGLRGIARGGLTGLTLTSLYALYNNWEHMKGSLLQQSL
UniProt Q9Y2W6: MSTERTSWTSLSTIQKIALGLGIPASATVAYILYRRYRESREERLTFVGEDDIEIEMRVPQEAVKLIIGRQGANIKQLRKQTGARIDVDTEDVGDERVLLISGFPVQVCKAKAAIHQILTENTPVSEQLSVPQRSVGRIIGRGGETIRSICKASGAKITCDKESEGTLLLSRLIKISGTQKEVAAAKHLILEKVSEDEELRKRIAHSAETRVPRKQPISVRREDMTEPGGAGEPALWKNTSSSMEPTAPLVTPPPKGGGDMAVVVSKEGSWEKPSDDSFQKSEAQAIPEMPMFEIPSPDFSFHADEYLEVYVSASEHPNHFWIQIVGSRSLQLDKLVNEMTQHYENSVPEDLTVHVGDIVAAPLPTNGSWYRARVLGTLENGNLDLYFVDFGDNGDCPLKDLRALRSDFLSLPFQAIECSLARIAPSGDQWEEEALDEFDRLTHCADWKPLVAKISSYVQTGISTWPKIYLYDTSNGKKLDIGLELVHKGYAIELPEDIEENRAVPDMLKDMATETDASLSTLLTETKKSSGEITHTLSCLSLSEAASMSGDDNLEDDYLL
UniProt Q9UHD2: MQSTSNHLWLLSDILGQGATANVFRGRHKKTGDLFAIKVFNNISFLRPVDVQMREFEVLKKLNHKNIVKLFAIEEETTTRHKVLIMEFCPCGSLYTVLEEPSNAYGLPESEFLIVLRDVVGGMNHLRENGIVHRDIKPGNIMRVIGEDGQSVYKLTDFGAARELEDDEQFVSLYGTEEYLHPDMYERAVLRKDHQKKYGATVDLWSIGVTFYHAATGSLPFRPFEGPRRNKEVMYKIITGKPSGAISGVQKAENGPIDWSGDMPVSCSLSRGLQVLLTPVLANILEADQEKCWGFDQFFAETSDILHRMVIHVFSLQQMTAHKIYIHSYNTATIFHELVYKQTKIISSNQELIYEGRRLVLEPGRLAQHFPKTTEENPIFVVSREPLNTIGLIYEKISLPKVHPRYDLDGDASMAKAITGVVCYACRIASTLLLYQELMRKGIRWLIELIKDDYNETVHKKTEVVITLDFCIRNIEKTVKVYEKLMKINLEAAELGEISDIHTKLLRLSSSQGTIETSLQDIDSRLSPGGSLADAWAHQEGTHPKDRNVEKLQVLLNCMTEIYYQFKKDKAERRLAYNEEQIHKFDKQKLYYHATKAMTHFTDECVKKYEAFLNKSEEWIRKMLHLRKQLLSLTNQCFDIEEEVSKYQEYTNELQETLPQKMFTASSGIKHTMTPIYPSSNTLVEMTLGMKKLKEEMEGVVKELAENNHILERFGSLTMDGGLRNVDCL
UniProt Q96MV1: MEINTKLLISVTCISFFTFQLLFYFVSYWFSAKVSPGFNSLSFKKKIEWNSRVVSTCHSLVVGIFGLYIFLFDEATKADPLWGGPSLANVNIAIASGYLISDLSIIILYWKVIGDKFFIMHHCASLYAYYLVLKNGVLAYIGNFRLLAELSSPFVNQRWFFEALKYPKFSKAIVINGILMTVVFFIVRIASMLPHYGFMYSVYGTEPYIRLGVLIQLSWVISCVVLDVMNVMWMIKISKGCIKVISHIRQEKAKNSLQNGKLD
UniProt Q8WVM0: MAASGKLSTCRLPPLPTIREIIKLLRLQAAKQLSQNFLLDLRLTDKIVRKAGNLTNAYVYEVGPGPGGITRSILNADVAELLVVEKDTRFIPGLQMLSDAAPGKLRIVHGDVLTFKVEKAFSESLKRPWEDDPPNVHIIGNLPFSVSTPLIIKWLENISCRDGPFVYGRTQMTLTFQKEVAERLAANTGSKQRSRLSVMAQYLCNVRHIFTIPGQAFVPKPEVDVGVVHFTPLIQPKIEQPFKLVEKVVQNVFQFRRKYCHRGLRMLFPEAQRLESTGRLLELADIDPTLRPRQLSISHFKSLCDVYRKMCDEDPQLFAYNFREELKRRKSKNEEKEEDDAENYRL
UniProt Q8WUH2: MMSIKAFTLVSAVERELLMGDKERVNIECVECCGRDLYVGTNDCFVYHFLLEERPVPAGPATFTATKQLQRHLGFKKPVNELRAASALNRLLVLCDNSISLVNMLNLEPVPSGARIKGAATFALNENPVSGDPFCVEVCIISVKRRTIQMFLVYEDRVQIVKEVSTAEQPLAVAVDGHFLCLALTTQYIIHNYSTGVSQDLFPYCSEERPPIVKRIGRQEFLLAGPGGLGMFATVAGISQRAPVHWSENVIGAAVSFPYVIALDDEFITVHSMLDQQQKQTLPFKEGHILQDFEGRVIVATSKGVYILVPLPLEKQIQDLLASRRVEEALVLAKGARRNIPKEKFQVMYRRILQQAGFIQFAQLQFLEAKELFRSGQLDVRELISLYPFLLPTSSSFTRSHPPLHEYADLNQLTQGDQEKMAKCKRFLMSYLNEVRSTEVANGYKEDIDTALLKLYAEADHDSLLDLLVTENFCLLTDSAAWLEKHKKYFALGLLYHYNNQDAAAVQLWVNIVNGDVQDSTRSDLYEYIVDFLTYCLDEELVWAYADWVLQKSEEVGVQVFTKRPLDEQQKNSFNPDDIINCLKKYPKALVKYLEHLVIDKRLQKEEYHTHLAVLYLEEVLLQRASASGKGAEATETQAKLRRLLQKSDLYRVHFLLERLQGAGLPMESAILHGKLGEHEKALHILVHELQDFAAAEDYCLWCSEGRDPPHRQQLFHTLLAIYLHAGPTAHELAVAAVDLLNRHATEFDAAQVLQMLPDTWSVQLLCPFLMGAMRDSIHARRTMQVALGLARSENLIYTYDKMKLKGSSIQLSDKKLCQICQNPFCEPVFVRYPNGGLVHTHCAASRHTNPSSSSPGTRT
UniProt Q96BS2: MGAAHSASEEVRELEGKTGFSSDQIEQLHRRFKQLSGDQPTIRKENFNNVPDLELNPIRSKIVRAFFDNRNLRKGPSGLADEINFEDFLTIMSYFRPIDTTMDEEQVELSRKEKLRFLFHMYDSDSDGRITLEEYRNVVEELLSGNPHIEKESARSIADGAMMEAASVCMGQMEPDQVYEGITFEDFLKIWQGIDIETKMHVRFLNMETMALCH
UniProt Q15814: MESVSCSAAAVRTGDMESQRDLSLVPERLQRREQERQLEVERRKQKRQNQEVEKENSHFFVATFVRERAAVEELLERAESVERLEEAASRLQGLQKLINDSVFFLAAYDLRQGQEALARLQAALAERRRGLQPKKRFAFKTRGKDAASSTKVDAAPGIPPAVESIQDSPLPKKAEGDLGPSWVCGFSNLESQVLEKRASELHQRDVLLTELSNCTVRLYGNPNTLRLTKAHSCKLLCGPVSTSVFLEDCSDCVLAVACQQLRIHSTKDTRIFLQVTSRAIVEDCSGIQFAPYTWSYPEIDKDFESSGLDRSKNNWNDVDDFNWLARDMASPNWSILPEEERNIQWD
UniProt P62380: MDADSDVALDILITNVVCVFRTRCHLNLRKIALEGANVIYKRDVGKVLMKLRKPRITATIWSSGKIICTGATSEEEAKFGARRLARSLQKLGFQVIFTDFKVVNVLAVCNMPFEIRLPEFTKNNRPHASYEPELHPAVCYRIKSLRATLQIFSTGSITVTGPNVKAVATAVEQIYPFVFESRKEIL
UniProt Q8WUY1: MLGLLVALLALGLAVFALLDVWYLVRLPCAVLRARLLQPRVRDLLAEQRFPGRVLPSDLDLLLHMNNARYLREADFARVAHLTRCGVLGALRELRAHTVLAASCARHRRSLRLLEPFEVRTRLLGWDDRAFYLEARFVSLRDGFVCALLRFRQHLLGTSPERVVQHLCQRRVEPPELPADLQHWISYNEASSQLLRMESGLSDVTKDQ
UniProt Q9BSF4: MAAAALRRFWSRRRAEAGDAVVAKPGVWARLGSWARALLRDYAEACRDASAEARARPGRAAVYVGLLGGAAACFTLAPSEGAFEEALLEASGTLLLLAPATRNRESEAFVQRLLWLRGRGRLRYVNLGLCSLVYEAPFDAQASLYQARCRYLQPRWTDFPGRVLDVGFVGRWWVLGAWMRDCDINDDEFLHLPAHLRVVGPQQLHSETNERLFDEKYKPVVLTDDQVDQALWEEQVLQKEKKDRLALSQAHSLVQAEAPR
UniProt Q9NXG2: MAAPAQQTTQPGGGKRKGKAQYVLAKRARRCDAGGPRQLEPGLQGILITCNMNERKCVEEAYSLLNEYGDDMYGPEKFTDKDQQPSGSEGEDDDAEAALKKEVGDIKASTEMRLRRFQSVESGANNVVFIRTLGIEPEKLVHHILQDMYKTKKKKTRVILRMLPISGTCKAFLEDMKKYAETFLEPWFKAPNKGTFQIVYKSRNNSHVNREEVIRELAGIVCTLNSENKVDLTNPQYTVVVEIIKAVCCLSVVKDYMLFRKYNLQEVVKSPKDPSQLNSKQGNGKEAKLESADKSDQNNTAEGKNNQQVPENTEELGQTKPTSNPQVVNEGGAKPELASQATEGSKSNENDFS

Key:
Assay in all cases: log2 fold change, soluble protein after heating vs DMSO (PISA); higher = thermal stabilisation; K562 cells, 10 uM, 30 min; active = over 0.2 and 3.5 SD of the protein, either way, in both replicates (recomputed)
bafetinib = compound: Cc1ccc(NC(=O)c2ccc(CN3CC[C@H](N(C)C)C3)c(C(F)(F)F)c2)cc1Nc1nccc(-c2cncnc2)n1 [bafetinib]
In short: (§1)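 K562 cells at 2×10^6 cells/mL were given 10 μM compound for 30 min. Aliquots then went through 3 min of heating across 48°C-58°C, were pooled, and were extracted in PBS with 0.5% NP-40 at 4°C, and the supernatant after 21,000xg for 90 min was quantified by TMTpro 16plex LC-MS/MS with channel sums equalised. Thermal stability relative to control samples, from duplicates, is given as log2 fold change.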

[1] = compound: Cc1cccc(CC(=O)N2CCc3c2ccc(-c2cn(C)c4ncnc(N)c24)c3F)n1
In short: as §1

nilotinib = compound: Cc1cn(-c2cc(NC(=O)c3ccc(C)c(Nc4nccc(-c5cccnc5)n4)c3)cc(C(F)(F)F)c2)cn1 [nilotinib]
In short: as §1

[2] = compound: Cc1nc(Nc2n[nH]c3c2CN(C(=O)N[C@H](CN(C)C)c2ccccc2)C3(C)C)c2sccc2n1
In short: as §1

dasatinib = compound: Cc1nc(Nc2ncc(C(=O)Nc3c(C)cccc3Cl)s2)cc(N2CCN(CCO)CC2)n1 [dasatinib]
In short: as §1

[3] = compound: Cc1ncc(-c2ccnc(Nc3ccc(S(C)(=O)=O)cc3)n2)n1C(C)C
In short: as §1

[4] = compound: Cn1cc(-c2ccc3c(c2)CCN3C(=O)Cc2cccc(C(F)(F)F)c2)c2c(N)ncnc21
In short: as §1

[5] = compound: Cn1cc(-c2ccc3nnc(C(F)(F)c4ccc5ncccc5c4)n3n2)cn1
In short: as §1

tipifarnib = compound: Cn1cncc1[C@@](N)(c1ccc(Cl)cc1)c1ccc2c(c1)c(-c1cccc(Cl)c1)cc(=O)n2C [tipifarnib]
In short: as §1

mubritinib = compound: FC(F)(F)c1ccc(/C=C/c2nc(COc3ccc(CCCCn4ccnn4)cc3)co2)cc1 [mubritinib]
In short: as §1

Measured: log2 fold change

THBS4 (UniProt P35443)
inactive: bafetinib -0.178 | [1] 0.559 | nilotinib 0.114 | [2] 0.05 | dasatinib 0.017 | [3] 0.189 | [4] 0.204 | [5] -0.045 | tipifarnib 0.082 | mubritinib -0.154

TGFBR3 (UniProt Q03167)
inactive: bafetinib 0.01 | [1] 0.001 | nilotinib 0.026 | [2] -0.075 | dasatinib 0.072 | [3] 0.125 | [4] 0.077 | [5] -0.089 | tipifarnib -0.006 | mubritinib -0.046

TIMM8A (UniProt O60220)
inactive: bafetinib -0.021 | [1] -0.001 | nilotinib 0.024 | [2] 0.014 | dasatinib 0.102 | [3] -0.062 | [4] 0.165 | [5] 0.239 | tipifarnib 0.123 | mubritinib 0.006

THEM4 (UniProt Q5T1C6)
inactive: bafetinib -0.041 | [1] -0.028 | nilotinib -0.005 | [2] -0.007 | dasatinib 0.06 | [3] -0.012 | [4] 0.043 | [5] 0.055 | tipifarnib 0.059 | mubritinib 0.018

TIMM23 (UniProt O14925)
inactive: bafetinib 0.013 | [1] 0.009 | nilotinib 0.037 | [2] -0.026 | dasatinib 0.033 | [3] 0.005 | [4] 0.021 | [5] -0.015 | tipifarnib 0 | mubritinib 0.035

TFCP2 (UniProt Q12800)
inactive: bafetinib 0.04 | [1] -0.092 | nilotinib 0.047 | [2] -0.03 | dasatinib -0.004 | [3] -0.03 | [4] -0.28 | [5] 0.026

TCIRG1 (UniProt Q13488)
inactive: bafetinib 0.03 | [1] -0.026 | nilotinib 0.138 | [2] 0.012 | dasatinib -0.036 | [3] -0.074 | [4] -0.263 | [5] 0.066

TDRKH (UniProt Q9Y2W6)
inactive: bafetinib 0.01 | [1] 0.023 | nilotinib -0.042 | [2] -0.071 | dasatinib -0.003 | [3] -0.076 | [4] -0.042 | [5] -0.054 | tipifarnib 0.038 | mubritinib 0.061

TJAP1 (UniProt Q5JTD0)
inactive: bafetinib -0.037 | [1] -0.154 | nilotinib -0.066 | [2] -0.075 | dasatinib -0.297 | [3] -0.047 | [4] -0.062 | [5] 0.209 | tipifarnib 0.112 | mubritinib -0.055

TBK1 (UniProt Q9UHD2)
inactive: bafetinib -0.035 | [1] -0.024 | nilotinib -0.114 | dasatinib -0.096 | [3] 0.012 | [4] 0.055 | [5] -0.002 | tipifarnib -0.103 | mubritinib -0.038
active: [2] 0.911

THOC1 (UniProt Q96FV9)
inactive: bafetinib -0.097 | [1] -0.143 | nilotinib -0.001 | [2] -0.055 | dasatinib -0.049 | [3] 0.075 | [4] -0.058 | [5] 0.059 | tipifarnib 0.044 | mubritinib 0

TJP2 isoform 7 (UniProt Q9UDY2)
inactive: bafetinib 0.05 | [1] 0.149 | nilotinib 0.014 | [2] -0.207 | dasatinib -0.191 | [3] -0.025 | [4] 0.009 | [5] 0.014 | tipifarnib -0.094 | mubritinib 0.002

TLCD4 (UniProt Q96MV1)
inactive: bafetinib -0.003 | [1] -0.016 | nilotinib 0.011 | [2] 0.018 | dasatinib 0.014 | [3] 0.064 | [4] -0.067 | [5] -0.09 | tipifarnib 0.038 | mubritinib -0.001

THRAP3 (UniProt Q9Y2W1)
inactive: bafetinib 0.052 | [1] -0.025 | nilotinib 0.049 | [2] -0.177 | dasatinib -0.009 | [3] 0 | [4] -0.045 | [5] -0.033 | tipifarnib 0.118 | mubritinib 0.063

TFB1M (UniProt Q8WVM0)
inactive: bafetinib 0.143 | [1] -0.01 | nilotinib 0.037 | [2] 0.089 | dasatinib 0.041 | [3] 0.04 | [4] 0.04 | [5] -0.111 | tipifarnib 0.115 | mubritinib -0.001

TIMM50 isoform 2 (UniProt Q3ZCQ8)
inactive: bafetinib -0.02 | [1] -0.042 | nilotinib -0.033 | [2] 0.009 | dasatinib -0.083 | [3] -0.036 | [4] 0.062 | [5] 0.027 | tipifarnib -0.1 | mubritinib -0.012

TJP1 (UniProt Q07157)
inactive: bafetinib -0.061 | [1] 0.008 | nilotinib 0.024 | [2] -0.199 | dasatinib -0.092 | [3] -0.037 | [4] -0.028 | [5] -0.02 | tipifarnib -0.025 | mubritinib 0.073

TCOF1 isoform 4 (UniProt Q13428)
inactive: bafetinib -0.037 | [1] -0.012 | nilotinib -0.022 | [2] 0.045 | dasatinib 0.048 | [3] -0.034 | [4] -0.046 | [5] -0.014 | tipifarnib 0.022 | mubritinib 0.025

TGFBRAP1 (UniProt Q8WUH2)
active: [1] 0.482
inactive: bafetinib -0.05 | nilotinib -0.122 | [2] -0.125 | dasatinib -0.153 | [3] 0.091 | [4] -0.151 | [5] -0.16 | tipifarnib 0.032 | mubritinib 0.053

TESC (UniProt Q96BS2)
inactive: bafetinib -0.074 | [1] -0.068 | nilotinib 0 | [2] 0.029 | dasatinib -0.028 | [3] -0.029 | [4] -0.065 | [5] -0.091 | tipifarnib -0.002 | mubritinib 0.02

TIMP1 (UniProt P01033)
inactive: bafetinib 0.009 | [1] -0.079 | nilotinib 0.084 | [2] -0.103 | dasatinib 0.153 | [3] -0.004 | [4] 0.065 | [5] -0.095 | tipifarnib 0.052 | mubritinib -0.023

Looked up one by one from the entries so far, 2 records:
TGFBRAP1 (UniProt Q8WUH2)
active: [1] 0.482
inactive: bafetinib -0.05 | nilotinib -0.122 | [2] -0.125 | dasatinib -0.153 | [3] 0.091 | [4] -0.151 | [5] -0.16 | tipifarnib 0.032 | mubritinib 0.053

TESC (UniProt Q96BS2)
inactive: bafetinib -0.074 | [1] -0.068 | nilotinib 0 | [2] 0.029 | dasatinib -0.028 | [3] -0.029 | [4] -0.065 | [5] -0.091 | tipifarnib -0.002 | mubritinib 0.02

Next records:

TBCC (UniProt Q15814)
inactive: bafetinib -0.061 | [1] 0.029 | nilotinib 0.019 | [2] -0.031 | dasatinib -0.02 | [3] -0.008 | [4] 0.092 | [5] 0.035 | tipifarnib 0.014 | mubritinib 0.039

TBPL1 (UniProt P62380)
inactive: bafetinib -0.036 | [1] -0.017 | nilotinib -0.069 | [2] -0.025 | dasatinib -0.136 | [3] -0.022 | [4] 0.05 | [5] 0.053 | tipifarnib -0.115 | mubritinib -0.026

THEM6 (UniProt Q8WUY1)
inactive: bafetinib -0.015 | [1] 0.005 | nilotinib 0.07 | [2] -0.015 | dasatinib 0.05 | [3] -0.065 | [4] 0.078 | [5] 0.043 | tipifarnib 0.09 | mubritinib 0.05

TCF3 (UniProt P15923)
inactive: bafetinib -0.069 | [1] 0.105 | nilotinib -0.066 | [2] -0.022 | dasatinib 0.015 | [3] -0.042 | [4] 0.012 | [5] -0.135 | tipifarnib 0.023 | mubritinib 0.056

TCAF1 (UniProt Q9Y4C2)
inactive: bafetinib -0.035 | [1] 0.016 | nilotinib -0.037 | [2] -0.016 | dasatinib -0.119 | [3] -0.042 | [4] -0.057 | [5] -0.038 | tipifarnib 0.022 | mubritinib 0.024

TIMM29 (UniProt Q9BSF4)
inactive: bafetinib -0.051 | [1] -0.077 | nilotinib -0.002 | [2] 0.069 | dasatinib -0.031 | [3] -0.039 | [4] -0.029 | [5] 0.057 | tipifarnib -0.046 | mubritinib 0.064

THUMPD1 (UniProt Q9NXG2)
inactive: bafetinib -0.038 | [1] -0.024 | nilotinib -0.003 | [2] -0.022 | dasatinib 0.014 | [3] -0.021 | [4] 0.046 | [5] -0.013 | tipifarnib -0.005 | mubritinib 0.021
